Over roughly 33,000 sequences, “E-score (-0.5 to 0.5)” has its median near -0.0059; the highest 2% begin near 0.26. The list shows a part of the results.
Molecular target: T1, Cin5 (UniProt P40917)
T1 sequence: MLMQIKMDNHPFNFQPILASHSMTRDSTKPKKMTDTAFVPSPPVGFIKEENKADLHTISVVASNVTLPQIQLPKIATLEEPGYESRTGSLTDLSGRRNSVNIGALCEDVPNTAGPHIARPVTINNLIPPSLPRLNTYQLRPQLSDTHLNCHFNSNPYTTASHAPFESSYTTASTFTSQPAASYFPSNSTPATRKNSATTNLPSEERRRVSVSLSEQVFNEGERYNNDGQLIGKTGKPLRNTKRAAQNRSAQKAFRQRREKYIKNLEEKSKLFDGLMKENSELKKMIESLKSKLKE
Assay: PBM E-score (8-mer binding enrichment) (E-score (-0.5 to 0.5)); higher = stronger / more preferred TF binding
Settings: protein concentration: 100 nM; construct: GST-full length
In short: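 Each ungapped eight-base word and its reverse complement, pooled, received an E-score from the Universal PBM Analysis Suite. Underlying scans, normalised with masliner, recorded fluorescent anti-GST bound to GST-tagged yeast transcription factors. These were applied at about 100-200 nM to universal all-10-mer Agilent arrays double-stranded by primer extension.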

Sequence	PBM E-score
AACGTGAC	0.0406
CGGATTGA	0.131
CGGTAGAA	-0.303
ATTGACGG	0.0426
CCGTTAAG	-0.15
TGCAATAA	0.216
GATCAGCC	-0.051
CGCATCTA	0.271
CATGTCCC	-0.0302
AAATTATG	0.24
ACCCGCTA	-0.0818
ATTCTGTA	-0.0612
AGAAGTAA	0.159
CGACACCC	-0.0488
CTGCCATC	0.0753
AAGTGGTC	-0.049
GAGGTACC	-0.194
ACCTGGGA	0.0597
CAGTTTAA	0.00606
CTTTTGGC	-0.0628
AATGCAAC	0.0401
TAATTCGA	0.0111
ATACTTAA	0.128
ATTTCAGC	0.0134
CTGACATC	0.173

Sequence	PBM E-score
CCGCAGTA	-0.133
ACATTAGT	0.109
GTAAGCAA	0.419
AATACTTA	0.0724
TACGAGGA	0.0138
AGAGGTCG	-0.0588
AGCTTTTC	-0.105
CTCGAGTA	0.147
CTTGTAAC	0.129
AGGTTACG	0.067
GGCGCGCA	0.116
ATGCTTTA	-0.0364
TCCTGCGA	0.00245
CGGAGGTA	-0.106
CTCCTCAG	-0.237
TCCGTCGA	0.193
GTCATCGA	-0.115
CTTCCAGC	-0.219
TCGAAACA	0.183
CTATAAGA	0.0762
ACCACCAG	0.0519
GCCCTTAC	-0.289
ACTCGAGA	0.116
CAGGGGCC	-0.202
GCGGGCAC	-0.00324

Look-ups from the results shown.
PBM E-score with GAGGTACC reads -0.194
PBM E-score with GTCATCGA reads -0.115
PBM E-score with CGCATCTA reads 0.271
PBM E-score with AACGTGAC reads 0.0406
PBM E-score with TAATTCGA reads 0.0111

The list continues.

Sequence	PBM E-score
ACATAGAG	-0.0918
CAGGAAGA	-0.0593
ACGTCTGA	0.021
CTGACACC	-0.181
ACAATGCT	0.0549
ACGGACCA	0.127
ATCATATA	0.269
CCACAATC	0.0126
CTCCTATA	-0.319
CGTGCCTC	-0.176
GAACTGAA	0.0861
GCACTTAC	0.112
TAAGGACA	-0.103
AGTCCGGC	-0.124
CTCCCGTA	-0.157
AGCCGAAA	-0.0624
GGCTTGCA	-0.0732
CGCTGACA	0.191
GTGCTAAC	-0.0228
AATTTACC	-0.0326
TGGATTAA	0.118
GCCCCCAA	-0.299
ACATTGGT	-0.0245
GGTAGAAC	0.0259
ACTATAAG	0.142

Sequence	PBM E-score
GAGGTGGC	-0.175
AATGACTA	0.0463
AAGATGAT	0.0774
CGACCGCA	-0.0103
ATGTGGGG	-0.0693
AGCTGTAG	0.139
ACGTGACT	-0.271
CCTCGCTC	-0.0422
TGGTTCAA	0.0807
CCTAGCAA	-0.0348
GACACGAC	-0.0785
CAAAGAGG	-0.0892
GATTCATA	0.131
AATCGACT	-0.0454
CAATAGCC	0.0319
CTAGGAGC	-0.291
CTCGAATA	-0.186
GAGTTGCA	0.088
ATGCACCG	-0.131
AAAGAATT	0.0863
CCGCACAA	-0.0338
CTAAGGCA	-0.173
ACACGCGC	-0.0699
AATCGTAG	0.0405
CGTCCCAC	-0.0257

Sequence	PBM E-score
AAGGTAGA	-0.0568
AGATTTAA	0.0294
GTTGACAA	0.18
CACAGGTG	-0.0586
CTGCCCAA	-0.00475
AACTACCC	-0.0456
ATACGTGC	0.0387
TACAAGAA	0.152
GTAAGCAC	0.319
CCGGGCTA	-0.296
CTAGTCAC	-0.111
GCTACTGA	0.0276
CAGTGACC	-0.0879
CCTGCAAA	-0.198
GAAAGAAA	0.283
AACGGTAA	-0.00391
ACTCCCGA	-0.14
GTAGGGTA	0.0976
AGCTATCA	0.103
GTCCAGAC	-0.291
AGTCTACG	-0.192
CAGGGTAG	-0.0591
AGCAACAC	0.115
GGTCCACC	-0.29
CGGCCTAA	-0.174

Exported bar-delimited: part of the list above.
Sequence | PBM E-score
GTAAGCAC | 0.319
CCGGGCTA | -0.296

(cont.)

Sequence	PBM E-score
CGGTAACG	-0.0557
GGCGAGCC	-0.17
CTAGCGAA	-0.219
AGATGAAA	0.166
CATCGATC	-0.0097
CAGACGCA	0.101
GATGGGAA	-0.176
AGGTTAAG	-0.121
CGCCCCGA	0.0731
CCTGAAGG	-0.17
GCACAAAC	0.0336
CCCCAACA	0.0749
CCAGTCGC	-0.0488
ACCTACGA	-0.122
AGTGCCGC	-0.124
CAGGCCTA	0.00358
CCTCAGAA	-0.179
CACTGATA	0.00814
AGTTCCAG	-0.107
AGAGTTCG	0.0959
GTGACGTA	0.204
CGTAAGGA	-0.0602
ATCGATGA	0.0297
CCTCTCCC	-0.155
ATCTCCAG	-0.16

Sequence	PBM E-score
TAGTAGCA	0.0354
AAAATCTG	0.127
CGCTTCCC	-0.191
ATCTGTGA	-0.0107
CGTATGAG	0.0151
AAAGCACC	-0.107
CAACCATG	0.181
AGCTTGAG	-0.19
CCGCGGCA	0.244
GTGGCTCA	-0.00924
CAAGTCAA	0.0864
ACAGTCCA	-0.057
TAATGCTA	0.192
GGTTCCTA	-0.1
ACAAGAGG	-0.127
GATGGGCA	0.0726
AACGTCAA	-0.0914
CTTGTGAA	0.0448
AAACGCCA	0.128
AATATGGT	0.146
ATAGGACC	-0.0995
AAGGTGCA	-0.0784

Source: the supplement of paper PMC3334620
